Assay results published in PMC11162772, “FUS reads histone H3K36me3 to regulate alternative polyadenylation”.
For at least one entry, the source does not settle the construct or the ends of the probe. At least one verdict rests on a figure or table, not on a statement of the authors. Protein sequences can lack the tags named with them.

Target: T1, FUS WT (FUS-FL) (UniProt P35637)
T1 sequence (looked up, limits assumed): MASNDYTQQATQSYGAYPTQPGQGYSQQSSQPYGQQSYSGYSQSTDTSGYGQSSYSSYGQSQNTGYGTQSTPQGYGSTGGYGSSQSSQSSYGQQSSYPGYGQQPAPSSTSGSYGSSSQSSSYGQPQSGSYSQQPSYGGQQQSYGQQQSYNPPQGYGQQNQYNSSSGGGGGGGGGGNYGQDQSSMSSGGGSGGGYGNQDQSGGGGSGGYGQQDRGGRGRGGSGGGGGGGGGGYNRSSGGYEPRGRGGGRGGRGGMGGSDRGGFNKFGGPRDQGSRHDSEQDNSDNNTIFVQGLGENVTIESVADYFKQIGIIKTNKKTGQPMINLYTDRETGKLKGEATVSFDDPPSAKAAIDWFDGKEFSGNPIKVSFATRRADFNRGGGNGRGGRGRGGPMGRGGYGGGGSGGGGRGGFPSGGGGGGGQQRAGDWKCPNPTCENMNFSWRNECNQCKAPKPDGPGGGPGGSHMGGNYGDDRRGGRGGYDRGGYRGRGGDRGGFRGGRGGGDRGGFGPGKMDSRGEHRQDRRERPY
Assay: MST
Settings: MST: PBS with 0.05% BSA and 0.05% Tween-20, 5 nM Cy5-RNA, temperature not stated; nucleosome pull-down buffer not given; recombinant protein; protein details: GST (pGEX-6p-2); label: 3' Cy5

Sequence	binding result
UUAGGGUUAGGGUUAGGGUUAGGG [4XUUAGGG-3'Cy5]	binds
GGUGGGUGGGUGGGUGGGUG [5XGGUG-3'Cy5]	binds
